About 210 (0.4%) of roughly 52,000 sequences were called active.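 Rule for the calls: active = gene whose silencing raises cell survival under the drug, median off-target-corrected z-score across its silencing RNAs 2 or more; inactive = the rest.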 The list shows a part of the results.

The nature of this assay: Resistance to Poly (ADP-Ribose) Polymerase inhibitor: Gene Identification via Genome-wide siRNA Screen. Conditions: mouse BRCA2 R2336H ES cells, olaparib, CellTiter-Glo viability; stronger effect = higher value. Summed up: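 Genome-wide siRNA screen (3 siRNAs/gene, 20 nM) in mouse ES cells carrying hypomorphic BRCA2 R2336H; olaparib 500 nM added 48 h post-transfection, CellTiter-Glo viability 72 h later. Normalized to plate-median negative control; MAD z-scores, gene median, seed-adjusted.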
(In ATP-based viability assays light output follows the ATP content of the culture.)
As to GGCCAUAGCCUAGCAUAACTT against Wdr4, the z-score is inactive: 1.57.
With GCUAGUCGACAAUUAUUACTT against Pcdhga1 the figure was inactive: 1.07; with “GGAGCCUUGGUCCUUUGAUTT against 1500031H04Rik”, inactive: -1.58.
GCUUCUUCUAUUCAUCAUUTT against Olfr933: the z-score was inactive: -0.392.
Regarding “GGGUCCCUUUGUCAGUAUGTT against 9230110C19Rik”, the z-score was inactive: 0.838.
With GGAUUCAGCCCUGGUUUCATT against Wbp1 the figure was inactive: 0.509.
With GCUUUGAUGACAAAAGUUCTT against Prdx6 the figure was inactive: 0.0202; with CCUUGACCGAGGAAGACAATT against Abpa, inactive: -0.511; with GGAGGGACAUUAAACUAUUTT against Chchd3, inactive: -0.187.
With CGUGAACUUUCAGAGCAGGTT against BC011248 the figure was inactive: -0.308.
In the case of GCUAAGGUCUUACUCCUGGTT against Cdca4, the z-score was inactive: -0.906.
With “CGGCCUUCUCUACAAAUCATT against 1110032A13Rik” the figure was inactive: 1.23.
With GCUCAGCGACUGGCAAAGATT against Mrpl46, the z-score is inactive: -0.893.
The result for “GGUAUUCGAGACCUGAUUATT against 6030440P17Rik” reads inactive: -1.35; that for GGUCUUGAGGUCAUUCUCCTT against Il24, inactive: 0.301.
For GGUUGGUAGGAUGGACAAGTT against Rab11b, the z-score is inactive: -0.391.
The result for “GGCUCUCUGAGGAAUCUAGTT against 2310009N05Rik” reads inactive: -0.229; that for GGAAAUCUUGGCAGUUUCCTT against Ckn1, inactive: 0.5; that for “GGGCAAAUUAGAGACCAAGTT against B830017A01Rik”, inactive: -0.595.
With GGAGGUAGAUGAACUUUAATT against Syt13 the figure was inactive: 1.22.
With GGCAUUGCUUCAUGGCUCUTT against Tmprss5 the figure was inactive: 0.462; with CCUUCAGUGGUUUGAACCGTT against Dnd1, inactive: 2.01; with CCAAGUAGAUUGUACCUAUTT against Fuca1, inactive: 0.0975.
Turning to GCCAAAUUAAGUAUCUUGATT against Lamp2, the z-score was inactive: -0.118.
The result for GGGUGGCUAUGGACAAAAATT against Arl12 reads inactive: -1.65.
With CCAGUAAUUAGCAUGUACGTT against Olfr1370 the figure was inactive: 0.97; with GGGACUUGGUUCAAACGACTT against Tbx3, inactive: 1.11; with “GGCAUAAUCUUCCAUUGUCTT against C130068N17Rik”, inactive: -1.38.
With GGUGGAAUAUAGAAGUUUCTT against Rgnef the figure was inactive: 0.16.

Values taken from PubChem BioAssay AID1347423 (Functional Genomics Laboratory (NCATS/FGL), 2020).
